No constants are given. Whether binding was seen depends on the method and setting. Binding seen in cells or lysates may run through a third protein. Some binding calls cover weakened binding; strength is not graded here.
Key:
Myc-tagged NEDD4L (WT) = Myc-tagged NEDD4L (WT) (UniProt Q96PU5); assay: co-IP; anti-Myc antibody, lysates of HEK293T cells cotransfected with Myc-tagged NEDD4L forms and FLAG-tagged SLC3A2
[1] = target: Myc-tagged NEDD4L-C942A (E3 ligase activity mutant) (UniProt Q96PU5); assay: as above

Sequences of proteins named here, by UniProt entry; tags and fusion partners are left off. A change or cut given only in a name is not applied to a line headed by its entry.
UniProt Q96PU5: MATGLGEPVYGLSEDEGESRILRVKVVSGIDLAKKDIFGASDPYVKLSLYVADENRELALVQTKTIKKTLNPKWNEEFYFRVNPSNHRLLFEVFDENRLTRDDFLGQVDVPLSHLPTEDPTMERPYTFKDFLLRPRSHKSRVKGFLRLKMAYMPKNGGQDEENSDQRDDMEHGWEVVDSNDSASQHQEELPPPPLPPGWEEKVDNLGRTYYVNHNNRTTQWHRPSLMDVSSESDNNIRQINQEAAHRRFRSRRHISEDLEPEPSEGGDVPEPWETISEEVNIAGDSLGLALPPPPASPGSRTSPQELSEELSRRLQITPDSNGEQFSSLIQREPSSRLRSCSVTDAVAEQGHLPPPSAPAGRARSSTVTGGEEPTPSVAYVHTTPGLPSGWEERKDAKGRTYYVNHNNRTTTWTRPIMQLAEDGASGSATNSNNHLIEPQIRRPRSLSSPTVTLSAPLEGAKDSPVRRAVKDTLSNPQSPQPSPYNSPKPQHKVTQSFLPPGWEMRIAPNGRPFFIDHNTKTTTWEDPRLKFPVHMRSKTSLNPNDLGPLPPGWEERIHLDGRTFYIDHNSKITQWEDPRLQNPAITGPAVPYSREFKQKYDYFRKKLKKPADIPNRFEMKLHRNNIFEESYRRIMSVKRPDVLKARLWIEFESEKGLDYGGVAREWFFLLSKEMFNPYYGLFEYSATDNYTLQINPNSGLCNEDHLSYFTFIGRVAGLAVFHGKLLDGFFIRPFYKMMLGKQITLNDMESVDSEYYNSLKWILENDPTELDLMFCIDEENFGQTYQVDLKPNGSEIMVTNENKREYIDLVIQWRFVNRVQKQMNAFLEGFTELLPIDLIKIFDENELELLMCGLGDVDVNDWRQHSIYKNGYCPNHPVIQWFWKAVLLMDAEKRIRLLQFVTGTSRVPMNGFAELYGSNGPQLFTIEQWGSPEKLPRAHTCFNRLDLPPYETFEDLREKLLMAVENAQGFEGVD

binding (Myc-tagged NEDD4L (WT)): binds
binding [1]: no binding
Substance: FLAG-tagged SLC3A2 (from UniProt P08195 1-529)
